No constants are given. Whether binding was seen depends on the method and setting. Binding seen in cells or lysates may run through a third protein. These calls come from enrichment with a bait or labelling near it, and not all partners need be listed. For part of these data: Sequences can lack the tags named with a protein.

Sequences of proteins named here, by UniProt entry; tags and fusion partners are left off.
UniProt Q9GZV5: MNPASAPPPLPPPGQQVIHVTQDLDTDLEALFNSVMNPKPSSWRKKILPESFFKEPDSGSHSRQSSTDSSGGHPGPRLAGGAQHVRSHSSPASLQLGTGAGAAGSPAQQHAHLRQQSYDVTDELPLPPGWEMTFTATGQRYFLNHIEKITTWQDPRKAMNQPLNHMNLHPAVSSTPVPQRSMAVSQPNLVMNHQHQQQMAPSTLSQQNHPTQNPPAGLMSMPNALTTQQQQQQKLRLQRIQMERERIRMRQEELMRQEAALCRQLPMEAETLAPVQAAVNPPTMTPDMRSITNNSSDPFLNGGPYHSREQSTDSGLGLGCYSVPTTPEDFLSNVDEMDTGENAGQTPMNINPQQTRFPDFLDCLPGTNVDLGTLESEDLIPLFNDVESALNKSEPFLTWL
UniProt Q6F5E8: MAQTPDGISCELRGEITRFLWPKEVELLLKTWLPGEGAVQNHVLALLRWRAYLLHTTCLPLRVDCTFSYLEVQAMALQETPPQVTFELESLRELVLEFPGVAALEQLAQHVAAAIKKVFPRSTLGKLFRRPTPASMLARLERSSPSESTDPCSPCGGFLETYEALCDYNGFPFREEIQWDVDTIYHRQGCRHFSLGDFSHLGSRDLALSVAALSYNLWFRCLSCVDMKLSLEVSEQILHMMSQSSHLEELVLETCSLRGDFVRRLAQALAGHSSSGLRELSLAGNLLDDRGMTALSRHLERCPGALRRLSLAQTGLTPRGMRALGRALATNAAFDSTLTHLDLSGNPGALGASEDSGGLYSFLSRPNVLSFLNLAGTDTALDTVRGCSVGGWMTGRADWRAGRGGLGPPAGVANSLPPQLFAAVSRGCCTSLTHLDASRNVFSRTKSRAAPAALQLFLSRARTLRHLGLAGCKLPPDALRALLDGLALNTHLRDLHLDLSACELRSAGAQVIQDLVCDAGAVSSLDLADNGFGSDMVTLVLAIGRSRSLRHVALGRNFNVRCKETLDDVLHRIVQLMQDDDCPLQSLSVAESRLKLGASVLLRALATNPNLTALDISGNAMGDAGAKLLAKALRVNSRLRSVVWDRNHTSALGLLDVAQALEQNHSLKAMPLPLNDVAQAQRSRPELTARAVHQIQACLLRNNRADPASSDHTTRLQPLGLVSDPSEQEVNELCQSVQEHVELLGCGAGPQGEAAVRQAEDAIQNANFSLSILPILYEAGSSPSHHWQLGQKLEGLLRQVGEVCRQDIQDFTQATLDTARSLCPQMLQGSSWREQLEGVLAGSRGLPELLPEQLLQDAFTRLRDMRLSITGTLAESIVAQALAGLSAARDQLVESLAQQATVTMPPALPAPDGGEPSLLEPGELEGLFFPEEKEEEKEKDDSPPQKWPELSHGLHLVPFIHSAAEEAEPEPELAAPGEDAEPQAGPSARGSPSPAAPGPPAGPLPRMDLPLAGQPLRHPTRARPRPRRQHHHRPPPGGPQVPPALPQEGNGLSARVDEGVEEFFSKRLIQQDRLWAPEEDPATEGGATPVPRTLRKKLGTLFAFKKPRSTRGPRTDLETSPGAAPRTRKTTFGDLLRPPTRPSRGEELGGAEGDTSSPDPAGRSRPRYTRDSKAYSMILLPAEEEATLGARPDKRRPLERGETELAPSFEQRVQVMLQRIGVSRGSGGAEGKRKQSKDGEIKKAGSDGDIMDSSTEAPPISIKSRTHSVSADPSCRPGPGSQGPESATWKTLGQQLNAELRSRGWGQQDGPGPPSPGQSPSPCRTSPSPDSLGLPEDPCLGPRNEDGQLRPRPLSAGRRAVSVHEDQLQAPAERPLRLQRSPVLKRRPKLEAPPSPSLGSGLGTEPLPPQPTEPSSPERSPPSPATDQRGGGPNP
UniProt Q9UGP4: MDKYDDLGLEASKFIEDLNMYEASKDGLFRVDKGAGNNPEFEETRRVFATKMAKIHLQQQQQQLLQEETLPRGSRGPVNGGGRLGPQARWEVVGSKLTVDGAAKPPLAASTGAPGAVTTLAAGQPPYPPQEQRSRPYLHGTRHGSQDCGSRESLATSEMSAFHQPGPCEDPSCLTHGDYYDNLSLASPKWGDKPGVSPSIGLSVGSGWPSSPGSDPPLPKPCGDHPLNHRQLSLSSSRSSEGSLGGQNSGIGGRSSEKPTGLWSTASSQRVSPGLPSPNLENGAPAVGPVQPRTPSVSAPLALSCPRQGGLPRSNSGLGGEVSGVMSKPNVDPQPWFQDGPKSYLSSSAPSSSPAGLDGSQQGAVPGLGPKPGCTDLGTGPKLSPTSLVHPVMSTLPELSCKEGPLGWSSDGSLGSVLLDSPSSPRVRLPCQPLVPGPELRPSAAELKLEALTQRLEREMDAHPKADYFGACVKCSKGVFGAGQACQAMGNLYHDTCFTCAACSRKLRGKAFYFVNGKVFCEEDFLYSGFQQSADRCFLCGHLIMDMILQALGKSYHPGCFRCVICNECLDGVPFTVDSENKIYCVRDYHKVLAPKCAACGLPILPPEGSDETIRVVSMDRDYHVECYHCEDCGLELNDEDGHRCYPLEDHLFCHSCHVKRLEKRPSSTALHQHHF
UniProt O75376: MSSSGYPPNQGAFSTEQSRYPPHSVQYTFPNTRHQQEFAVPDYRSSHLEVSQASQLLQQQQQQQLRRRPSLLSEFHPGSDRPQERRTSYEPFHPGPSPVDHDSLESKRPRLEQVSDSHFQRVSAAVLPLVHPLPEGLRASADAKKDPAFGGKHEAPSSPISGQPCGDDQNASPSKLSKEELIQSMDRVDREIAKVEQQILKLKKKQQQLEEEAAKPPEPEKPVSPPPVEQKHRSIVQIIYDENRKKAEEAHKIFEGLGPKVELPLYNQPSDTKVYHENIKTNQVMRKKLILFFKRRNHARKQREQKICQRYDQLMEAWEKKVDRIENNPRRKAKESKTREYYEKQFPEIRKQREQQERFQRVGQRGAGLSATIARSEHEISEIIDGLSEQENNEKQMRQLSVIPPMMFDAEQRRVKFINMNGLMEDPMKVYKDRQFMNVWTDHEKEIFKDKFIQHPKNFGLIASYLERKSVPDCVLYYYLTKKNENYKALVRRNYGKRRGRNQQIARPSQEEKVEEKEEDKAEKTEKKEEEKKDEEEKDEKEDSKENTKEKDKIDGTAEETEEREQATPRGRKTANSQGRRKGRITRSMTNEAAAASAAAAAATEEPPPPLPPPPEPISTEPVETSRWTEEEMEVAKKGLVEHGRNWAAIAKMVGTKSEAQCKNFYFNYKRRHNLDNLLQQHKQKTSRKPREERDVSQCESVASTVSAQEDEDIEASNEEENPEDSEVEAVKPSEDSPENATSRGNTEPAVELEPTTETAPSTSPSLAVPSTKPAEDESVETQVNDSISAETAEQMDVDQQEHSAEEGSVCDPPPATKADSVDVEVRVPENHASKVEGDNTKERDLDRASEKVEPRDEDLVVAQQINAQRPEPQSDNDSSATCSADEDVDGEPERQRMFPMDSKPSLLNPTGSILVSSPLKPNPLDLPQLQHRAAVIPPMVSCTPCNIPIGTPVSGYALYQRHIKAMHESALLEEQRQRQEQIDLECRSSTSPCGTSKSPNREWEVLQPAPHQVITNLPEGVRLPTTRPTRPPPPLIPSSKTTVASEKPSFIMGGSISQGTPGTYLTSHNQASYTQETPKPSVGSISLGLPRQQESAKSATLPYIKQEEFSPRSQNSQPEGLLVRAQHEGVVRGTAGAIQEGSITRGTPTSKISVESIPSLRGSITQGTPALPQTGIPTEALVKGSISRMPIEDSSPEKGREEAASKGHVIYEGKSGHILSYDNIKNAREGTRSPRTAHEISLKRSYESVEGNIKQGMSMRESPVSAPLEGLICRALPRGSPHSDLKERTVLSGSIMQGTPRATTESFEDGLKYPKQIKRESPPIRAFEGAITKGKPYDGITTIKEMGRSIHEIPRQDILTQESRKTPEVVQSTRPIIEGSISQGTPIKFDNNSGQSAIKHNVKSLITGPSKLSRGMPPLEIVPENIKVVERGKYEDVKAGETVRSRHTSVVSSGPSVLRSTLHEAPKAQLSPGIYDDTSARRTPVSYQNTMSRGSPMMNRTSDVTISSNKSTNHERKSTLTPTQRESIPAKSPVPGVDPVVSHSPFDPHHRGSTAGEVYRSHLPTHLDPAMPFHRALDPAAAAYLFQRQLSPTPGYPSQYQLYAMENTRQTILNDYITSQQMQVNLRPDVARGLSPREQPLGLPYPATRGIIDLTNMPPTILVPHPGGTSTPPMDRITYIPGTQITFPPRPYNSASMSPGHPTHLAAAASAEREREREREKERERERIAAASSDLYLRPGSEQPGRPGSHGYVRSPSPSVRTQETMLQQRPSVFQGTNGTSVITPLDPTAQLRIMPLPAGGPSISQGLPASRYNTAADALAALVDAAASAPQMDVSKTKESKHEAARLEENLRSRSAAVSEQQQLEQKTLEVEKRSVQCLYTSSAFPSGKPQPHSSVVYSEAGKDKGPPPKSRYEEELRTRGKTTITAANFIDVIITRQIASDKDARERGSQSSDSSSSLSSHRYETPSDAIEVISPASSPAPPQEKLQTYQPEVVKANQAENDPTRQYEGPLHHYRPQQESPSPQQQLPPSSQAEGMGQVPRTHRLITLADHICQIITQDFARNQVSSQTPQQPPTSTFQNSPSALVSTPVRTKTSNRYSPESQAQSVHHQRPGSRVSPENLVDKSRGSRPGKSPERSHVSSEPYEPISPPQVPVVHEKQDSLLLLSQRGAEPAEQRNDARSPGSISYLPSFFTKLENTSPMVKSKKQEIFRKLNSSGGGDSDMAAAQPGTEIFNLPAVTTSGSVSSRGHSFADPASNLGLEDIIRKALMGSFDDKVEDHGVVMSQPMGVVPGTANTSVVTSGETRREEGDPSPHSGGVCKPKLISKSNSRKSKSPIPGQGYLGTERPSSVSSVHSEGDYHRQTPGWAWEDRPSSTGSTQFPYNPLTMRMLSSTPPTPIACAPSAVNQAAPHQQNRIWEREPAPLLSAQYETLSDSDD

Experiment [1] concerns the target MYC-BioID2-TAZ fusion protein (human TAZ/WWTR1) (human) (UniProt Q9GZV5). The experiment in a line: proximity labelling; BioID2 fusion bait expressed by adenovirus (MOI 20) in primary human cardiac fibroblasts (P3); 20 uM biotin; lysis; capture on magnetic streptavidin beads; tryptic digestion and MS/MS; SAINTexpress against untreated and empty-BioID2 controls; cut-off fold change >= 3 and SAINT score >= 0.5.

In experiment [2] the target is T1, MYC-BioID2-SKI fusion protein (human SKI) (human) (UniProt P12755).
T1 sequence: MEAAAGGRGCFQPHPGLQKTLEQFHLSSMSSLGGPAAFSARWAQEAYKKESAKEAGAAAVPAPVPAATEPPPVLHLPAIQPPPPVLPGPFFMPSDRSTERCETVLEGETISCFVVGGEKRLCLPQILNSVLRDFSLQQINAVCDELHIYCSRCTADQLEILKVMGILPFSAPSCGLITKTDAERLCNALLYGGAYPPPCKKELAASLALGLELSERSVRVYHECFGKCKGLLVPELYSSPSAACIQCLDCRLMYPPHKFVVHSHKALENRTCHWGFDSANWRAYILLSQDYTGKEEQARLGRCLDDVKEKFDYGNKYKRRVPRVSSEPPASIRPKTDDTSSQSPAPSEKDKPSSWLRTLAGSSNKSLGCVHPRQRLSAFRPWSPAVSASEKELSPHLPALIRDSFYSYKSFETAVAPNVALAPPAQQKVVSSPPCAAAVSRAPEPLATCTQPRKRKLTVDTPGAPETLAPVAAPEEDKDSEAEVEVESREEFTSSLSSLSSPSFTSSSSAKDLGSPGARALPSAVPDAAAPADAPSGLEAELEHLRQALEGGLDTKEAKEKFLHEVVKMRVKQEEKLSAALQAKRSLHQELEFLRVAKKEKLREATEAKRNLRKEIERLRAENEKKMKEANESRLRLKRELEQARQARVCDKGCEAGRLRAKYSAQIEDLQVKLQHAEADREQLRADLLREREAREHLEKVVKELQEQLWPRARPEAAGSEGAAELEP
Described as above.

For experiment [3], the target named is T1, MYC-BioID2-SKI fusion protein (human SKI) (human). In words: proximity labelling; BioID2 fusion bait in primary human cardiac fibroblasts; repeated streptavidin affinity capture of biotinylated proteins, targets probed by immunoblotting.

Turning to “Capping Protein Regulator and Myosin 1 Linker 2 (from UniProt Q6F5E8 1-1435)”, the binding result in experiment [1] and in experiment [2] was “binds” each time.
For “LIM Domain-containing protein 1 (from UniProt Q9UGP4 1-676)”, the binding entry in experiment [3] and in experiment [2] was “binds” in each case.
For “Nuclear Co-Repressor 1 (from UniProt O75376 1-2440)”, the binding entry in experiment [3] and in experiment [2] was “binds” in each case.

For the origin of these results see article PMC8043893.
